# Results from publication PMC7862700.
# Only a part is listed here, and it is no random draw. At the low end of the ranking the order means little.
# Legend:
# Test in all cases: DAPPL (digital affinity profiling via proximity ligation, sequencing)
# Conditions in all cases: 10 mM Tris-HCl pH 7.5, 50 mM NaCl, 1 mM DTT, 4% glycerol, room temperature, 30 min; GST-TFs on glutathione beads, 16-mer random dsDNA library, 0.1% …; high values mean tight binding; double strand, one strand shown; scale: fold enrichment (6-mer frequency, TF over GST control)
# [1] = target: T1, ELK1 (UniProt P19419)
# T1 sequence: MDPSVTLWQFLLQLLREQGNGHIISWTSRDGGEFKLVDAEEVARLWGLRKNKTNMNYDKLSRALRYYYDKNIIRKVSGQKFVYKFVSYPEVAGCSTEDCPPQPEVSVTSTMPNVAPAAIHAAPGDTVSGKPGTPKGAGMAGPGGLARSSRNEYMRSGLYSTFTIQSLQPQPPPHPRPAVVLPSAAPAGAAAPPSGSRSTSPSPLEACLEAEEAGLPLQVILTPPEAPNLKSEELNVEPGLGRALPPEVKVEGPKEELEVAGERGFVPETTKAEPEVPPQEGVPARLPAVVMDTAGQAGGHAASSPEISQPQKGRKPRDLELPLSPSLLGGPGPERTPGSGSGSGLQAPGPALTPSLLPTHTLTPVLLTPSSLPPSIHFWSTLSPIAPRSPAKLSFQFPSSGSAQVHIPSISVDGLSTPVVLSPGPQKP
# [2] = target: T2, ELK3 (UniProt P41970)
# T2 sequence: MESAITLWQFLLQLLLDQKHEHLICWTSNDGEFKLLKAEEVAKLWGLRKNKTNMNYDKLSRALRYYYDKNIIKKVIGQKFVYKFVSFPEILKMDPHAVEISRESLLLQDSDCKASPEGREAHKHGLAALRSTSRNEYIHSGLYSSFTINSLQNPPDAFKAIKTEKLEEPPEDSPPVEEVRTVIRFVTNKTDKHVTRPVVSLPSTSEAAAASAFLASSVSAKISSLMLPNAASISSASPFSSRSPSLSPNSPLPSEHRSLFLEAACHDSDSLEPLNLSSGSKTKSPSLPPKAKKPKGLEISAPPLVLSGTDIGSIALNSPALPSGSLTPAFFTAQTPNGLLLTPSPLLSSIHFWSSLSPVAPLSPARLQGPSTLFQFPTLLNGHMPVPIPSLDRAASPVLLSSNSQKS
# [3] = target: T3, SPIC (UniProt Q8N5J4)
# T3 sequence: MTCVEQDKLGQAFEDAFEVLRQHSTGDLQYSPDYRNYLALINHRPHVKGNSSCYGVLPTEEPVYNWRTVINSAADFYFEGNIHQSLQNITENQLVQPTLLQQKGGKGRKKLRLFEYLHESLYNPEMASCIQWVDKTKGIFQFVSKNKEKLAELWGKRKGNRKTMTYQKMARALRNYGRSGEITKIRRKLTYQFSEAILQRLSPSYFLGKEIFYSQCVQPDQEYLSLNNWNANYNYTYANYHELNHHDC
# [4] = target: T4, ETS2 (UniProt P15036)
# T4 sequence: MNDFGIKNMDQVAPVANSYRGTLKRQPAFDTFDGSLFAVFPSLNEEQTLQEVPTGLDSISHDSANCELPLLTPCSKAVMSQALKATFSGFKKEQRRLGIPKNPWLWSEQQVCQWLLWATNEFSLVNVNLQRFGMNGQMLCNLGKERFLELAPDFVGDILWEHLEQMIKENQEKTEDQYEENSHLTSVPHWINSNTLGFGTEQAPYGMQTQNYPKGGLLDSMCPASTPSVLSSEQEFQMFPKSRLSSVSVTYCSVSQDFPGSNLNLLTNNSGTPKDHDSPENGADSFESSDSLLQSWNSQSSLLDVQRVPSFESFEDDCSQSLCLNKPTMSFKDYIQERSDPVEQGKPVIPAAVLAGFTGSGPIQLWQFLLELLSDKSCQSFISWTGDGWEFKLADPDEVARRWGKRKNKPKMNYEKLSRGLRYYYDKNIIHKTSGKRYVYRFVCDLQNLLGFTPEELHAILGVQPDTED
# [5] = target: T5, ETV3 (UniProt P41162-2)
# T5 sequence: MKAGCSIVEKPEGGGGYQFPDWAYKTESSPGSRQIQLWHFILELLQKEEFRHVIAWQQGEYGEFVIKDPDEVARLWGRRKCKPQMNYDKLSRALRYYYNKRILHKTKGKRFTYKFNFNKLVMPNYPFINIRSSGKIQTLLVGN
Sequence,binding signal [1],binding signal [2],binding signal [3],binding signal [4],binding signal [5]
TTACGC,1.06,1.21,0.981,,
GTAACC,0.991,1.04,0.983,,
CGTTTA,1.08,1.12,1.03,,
CCGAAC,1.21,1.33,1.32,,
GCTTGG,,,1.03,1.14,
CCAATT,1.24,1.18,1.31,,
AAGTGT,1.29,1.37,1.6,,
GGAAGT,,,3.41,3.2,
AGGATG,0.964,0.895,0.918,,
CGCCAA,1.02,1.06,1.11,,
CCGAAA,1.23,0.997,1.31,,
TCCCGG,,,2.35,2.34,
GCACCT,,,1,0.999,
CAGCTC,0.935,0.992,1.06,,
TTCTTG,,,1.31,1.39,
TTTACC,1.2,1.37,1.17,,
ATGCAG,1.04,0.953,0.996,,
CACACA,1.08,1.2,1.07,,
TTCGCG,1.07,1.15,1.16,,
ATTGAG,1.12,0.959,0.915,,0.992
AACACG,1.23,1.16,1.33,,
GGACTT,,,0.996,1.13,
GCCCCA,,,1.05,0.995,
GAAACG,,,1.19,1.17,
TTCGGT,,,1.34,1.16,
CCCCGT,,,1.05,0.994,
TTGTCA,,,0.982,1.11,

# In another format: results already given
Sequence	binding signal [1]	binding signal [2]	binding signal [3]	binding signal [4]	binding signal [5]
CACACA	1.08	1.2	1.07		
TTCGCG	1.07	1.15	1.16		
